# For at least one compound, name, drawing or mass did not settle the structure.
# Test system: Fah−/−Rag2−/−IL2rg−/− rats (FRG rats)
# Test: Survival of FRG rats under NTBC supply / programmed NTBC controlling
# Assay type: in vivo, rat
# Procedure: Fah^−/−Rag2^−/−IL2rg^−/− rats (FRG rats) were housed in the Experimental Animal Center of Jiangsu University.
# In the past feeding, FRG rats were daily supplied with 5-8 mg/L. In the present disclosure, the lowest dose of 5 mg/L NTBC was set as 100% NTBC; According to the weight (250-300 g) and the amount of water (25-50 ml/day) of rats, we can get: • 4% NTBC: equivalent to an average of 0.03 mg/kg/day; • 100% NTBC: equivalent to an average of 0.75 mg/kg/day. • (2) The transplantation was performed under an anesthesia machine using isoflurane. The rat was fixed with its abdomen facing upward, and cleaned and disinfected with iodine and alcohol after dehairing. • (3) By cutting the epidermis and muscle layers, the hepatic portal vein was found. 2×10^6 human primary hepatocytes (resuspended in 800 μl DMEM+10% FBS) were slowly injected with a 26G needle. After completing the injection and paused for a few seconds, the needle was then pulled out, with the needle port quickly pressed with a sterile cotton swab. • (4) After pressing for about 1 minute, with no blood effusion be observed, the muscle and epidermis were sutured and the wound was disinfected with alcohol cotton.
# The optimal NTBC maintenance concentration was determined by comparing the survival rate of rats at different NTBC concentrations (0%, 1%, 4%, 10%, 100%). […]
smiles,measurement,setting,value
"O=C1CCCC(=O)C1C(=O)c1ccc(C(F)(F)F)cc1[N+](=O)[O-] [NTBC, 2-(2-nitro-4-trifluoromethylbenzoyl)-1.3 cyclohexanedione]",survival rate within 2 months,programmed NTBC 5+4 (5 days of 4% NTBC+4 days of 100% NTBC cycle),high survival rate
same,survival rate within 2 months,programmed NTBC 7+4 (7 days of 4% NTBC+4 days of 100% NTBC cycle),high survival rate

# Source: patent US20240108590A1, “MAINTENANCE OF PROGRAMMED CHRONIC LIVER INJURY OF FAH GENE-DEFICIENT ANIMALS AND APPLICATION THEREOF IN PREPARATION OF HETEROLOGOUS LIVER MODELS” (Jiangsu University, priority 2020, published 2024)
